# Laboratory results: the supplement of paper PMC8728848
# Some of the results follow.
# B1: SP15308F-bth-333-19-333 (Bacteroides thetaiotaomicron) (protein)
# chain: SCNNEWESEQYVQMVSFKAPVNAQGVTPIYIRYKPEGKVTYQLPLIVSGSTMNSKDLNVHVGLDLDTLDVLNVEHFGSRKELFFKPLENKYYEFPETVQIPAGECTSLLPIDFALKDLDQVDKWVLPLAIQSNDPSHNYQANPRKFYRRAMLRISPFNDYSGQYSATAYKVYFKGNEKEAIVPEYHTSYVIDDKTIFFYAGLIDIDRLDRKYYKIKFEFTEEKIDLQTRKLKISSDNEDINLVVKGQPSYTVEEEMDATRPYLKHIYVTINNLEYEFTDYTSVPGYPLEYVVKGSLTMERKINTQIPDEDQAIEW
# Legend:
# Experiment in all cases: glycan array binding signal (z-score within array); higher = stronger binding
# Conditions in all cases: glycan notation: IUPAC condensed, linker removed
# [1] = target: Neu5Ac(a2-3)Gal(b1-4)GlcNAc(b1-6)GalNAc
# Procedure, shortened: (§1)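 Glycan array binding is given as a within-array Z-score, which can be read as non-binding when negative. The arrays, 3228 of them, came from the Consortium for Functional Glycomics database and were retained only where the protein sequence was available. Z-scores were averaged across arrays of the same protein sequence at different concentrations or buffers and across linkers.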
# [2] = target: Neu5Ac(a2-3)Gal(b1-4)GlcNAc(b1-6)[Gal(b1-3)]GalNAc
# Procedure, shortened: as §1
# [3] = target: Neu5Ac(a2-3)Gal(b1-4)GlcNAc(b1-6)[Neu5Ac(a2-3)Gal(b1-3)]GalNAc
# Procedure, shortened: as §1
# [4] = target: Neu5Ac(a2-3)Gal(b1-4)GlcNAc6S
# Procedure, shortened: as §1
# [5] = target: Neu5Ac(a2-3)Gal(b1-4)[Fuc(a1-3)]GlcNAc
# Procedure, shortened: as §1
# [6] = target: Neu5Ac(a2-3)Gal(b1-4)[Fuc(a1-3)]GlcNAc(b1-2)Man
# Procedure, shortened: as §1
# [7] = target: Neu5Ac(a2-3)Gal(b1-4)[Fuc(a1-3)]GlcNAc(b1-3)Gal
# Procedure, shortened: as §1
# [8] = target: Neu5Ac(a2-3)Gal(b1-4)[Fuc(a1-3)]GlcNAc(b1-3)Gal(b1-4)GlcNAc
# Procedure, shortened: as §1
# [9] = target: Neu5Ac(a2-3)Gal(b1-4)[Fuc(a1-3)]GlcNAc(b1-3)Gal(b1-4)[Fuc(a1-3)]GlcNAc(b1-3)Gal(b1-4)[Fuc(a1-3)]GlcNAc
# Procedure, shortened: as §1
# [10] = target: Neu5Ac(a2-3)Gal(b1-4)[Fuc(a1-3)]GlcNAc(b1-3)GalNAc
# Procedure, shortened: as §1
# [11] = target: Neu5Ac(a2-3)Gal(b1-4)[Fuc(a1-3)]GlcNAc(b1-6)[Gal(b1-3)]GalNAc
# Procedure, shortened: as §1
# [12] = target: Neu5Ac(a2-3)Gal(b1-4)[Fuc(a1-3)]GlcNAc(b1-6)[Neu5Ac(a2-3)Gal(b1-3)]GalNAc
# Procedure, shortened: as §1
# [13] = target: Neu5Ac(a2-3)Gal(b1-4)[Fuc(a1-3)]GlcNAc6S
# Procedure, shortened: as §1
# [14] = target: Neu5Ac(a2-3)Gal6S(b1-4)GlcNAc
# Procedure, shortened: as §1
# [15] = target: Neu5Ac(a2-3)Gal6S(b1-4)[Fuc(a1-3)]GlcNAc
# Procedure, shortened: as §1
# Neu5Ac(a2-3)GalNAc = target: Neu5Ac(a2-3)GalNAc
# Procedure, shortened: as §1
# [16] = target: Neu5Ac(a2-3)GalNAc(b1-4)GlcNAc
# Procedure, shortened: as §1
# [17] = target: Neu5Ac(a2-3)[GalNAc(b1-4)]Gal(b1-4)Glc
# Procedure, shortened: as §1
# [18] = target: Neu5Ac(a2-3)[GalNAc(b1-4)]Gal(b1-4)GlcNAc
# Procedure, shortened: as §1
# [19] = target: Neu5Ac(a2-3)[GalNAc(b1-4)]Gal(b1-4)GlcNAc(b1-3)GalNAc
# Procedure, shortened: as §1
# [20] = target: Neu5Ac(a2-3)[Neu5Ac(a2-6)]GalNAc
# Procedure, shortened: as §1
# Neu5Ac(a2-6)Gal = target: Neu5Ac(a2-6)Gal
# Procedure, shortened: as §1
# [21] = target: Neu5Ac(a2-6)Gal(b1-3)GlcNAc(b1-3)[Gal(b1-4)GlcNAc(b1-6)]Gal(b1-4)Glc
# Procedure, shortened: as §1
# Neu5Ac(a2-6)Gal(b1-4)Glc = target: Neu5Ac(a2-6)Gal(b1-4)Glc
# Procedure, shortened: as §1
# [22] = target: Neu5Ac(a2-6)Gal(b1-4)GlcNAc
# Procedure, shortened: as §1
# [23] = target: Neu5Ac(a2-6)Gal(b1-4)GlcNAc(b1-2)Man
# Procedure, shortened: as §1
# [24] = target: Neu5Ac(a2-6)Gal(b1-4)GlcNAc(b1-2)Man(a1-3)Man(b1-4)GlcNAc(b1-4)GlcNAc
# Procedure, shortened: as §1
# [25] = target: Neu5Ac(a2-6)Gal(b1-4)GlcNAc(b1-2)Man(a1-3)[Gal(b1-4)GlcNAc(b1-2)Man(a1-6)]Man(b1-4)GlcNAc(b1-4)GlcNAc
# Procedure, shortened: as §1
# [26] = target: Neu5Ac(a2-6)Gal(b1-4)GlcNAc(b1-2)Man(a1-3)[GlcNAc(b1-2)Man(a1-6)]Man(b1-4)GlcNAc(b1-4)GlcNAc
# Procedure, shortened: as §1
# [27] = target: Neu5Ac(a2-6)Gal(b1-4)GlcNAc(b1-2)Man(a1-3)[GlcNAc(b1-4)][Neu5Ac(a2-6)Gal(b1-4)GlcNAc(b1-2)Man(a1-6)]Man(b1-4)GlcNAc(b1-4)GlcNAc
# Procedure, shortened: as §1
# [28] = target: Neu5Ac(a2-6)Gal(b1-4)GlcNAc(b1-2)Man(a1-3)[Man(a1-6)]Man(b1-4)GlcNAc(b1-4)GlcNAc
# Procedure, shortened: as §1
binder,measurement,setting,value
B1,glycan array binding signal (z-score),[1],-0.683
same,glycan array binding signal (z-score),[2],0.141
same,glycan array binding signal (z-score),[3],-0.868
same,glycan array binding signal (z-score),[4],1.4
same,glycan array binding signal (z-score),[5],0.346
same,glycan array binding signal (z-score),[6],-0.404
same,glycan array binding signal (z-score),[7],0.474
same,glycan array binding signal (z-score),[8],0.097
same,glycan array binding signal (z-score),[9],1.65
same,glycan array binding signal (z-score),[10],3.76
same,glycan array binding signal (z-score),[11],-0.41
same,glycan array binding signal (z-score),[12],-0.14
same,glycan array binding signal (z-score),[13],1
same,glycan array binding signal (z-score),[14],-0.164
same,glycan array binding signal (z-score),[15],0.085
same,glycan array binding signal (z-score),Neu5Ac(a2-3)GalNAc,-0.649
same,glycan array binding signal (z-score),[16],0.215
same,glycan array binding signal (z-score),[17],-1.38
same,glycan array binding signal (z-score),[18],-0.606
same,glycan array binding signal (z-score),[19],0.281
same,glycan array binding signal (z-score),[20],-0.854
same,glycan array binding signal (z-score),Neu5Ac(a2-6)Gal,-0.241
same,glycan array binding signal (z-score),[21],-0.524
same,glycan array binding signal (z-score),Neu5Ac(a2-6)Gal(b1-4)Glc,-0.555
same,glycan array binding signal (z-score),[22],-0.599
same,glycan array binding signal (z-score),[23],-0.15
same,glycan array binding signal (z-score),[24],-0.917
same,glycan array binding signal (z-score),[25],0.208
same,glycan array binding signal (z-score),[26],1.89
same,glycan array binding signal (z-score),[27],-1.02
same,glycan array binding signal (z-score),[28],-0.333

# Random excerpt: 2 entries already listed, in no set order.
binder,measurement,setting,value
B1,glycan array binding signal (z-score),[9],1.65
same,glycan array binding signal (z-score),[5],0.346
